# Results published in publication PMC8654301.
# Sequences of proteins named here, by UniProt entry; tags and fusion partners are left off. Residues count along the entry.
# UniProt Q9NZC2, residues 19-230: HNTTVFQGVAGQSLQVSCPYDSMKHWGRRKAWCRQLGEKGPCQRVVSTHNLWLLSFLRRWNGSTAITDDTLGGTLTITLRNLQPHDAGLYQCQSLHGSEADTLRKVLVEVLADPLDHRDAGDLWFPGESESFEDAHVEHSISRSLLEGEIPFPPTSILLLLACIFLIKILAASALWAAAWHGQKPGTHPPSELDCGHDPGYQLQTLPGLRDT
# UniProt P43403: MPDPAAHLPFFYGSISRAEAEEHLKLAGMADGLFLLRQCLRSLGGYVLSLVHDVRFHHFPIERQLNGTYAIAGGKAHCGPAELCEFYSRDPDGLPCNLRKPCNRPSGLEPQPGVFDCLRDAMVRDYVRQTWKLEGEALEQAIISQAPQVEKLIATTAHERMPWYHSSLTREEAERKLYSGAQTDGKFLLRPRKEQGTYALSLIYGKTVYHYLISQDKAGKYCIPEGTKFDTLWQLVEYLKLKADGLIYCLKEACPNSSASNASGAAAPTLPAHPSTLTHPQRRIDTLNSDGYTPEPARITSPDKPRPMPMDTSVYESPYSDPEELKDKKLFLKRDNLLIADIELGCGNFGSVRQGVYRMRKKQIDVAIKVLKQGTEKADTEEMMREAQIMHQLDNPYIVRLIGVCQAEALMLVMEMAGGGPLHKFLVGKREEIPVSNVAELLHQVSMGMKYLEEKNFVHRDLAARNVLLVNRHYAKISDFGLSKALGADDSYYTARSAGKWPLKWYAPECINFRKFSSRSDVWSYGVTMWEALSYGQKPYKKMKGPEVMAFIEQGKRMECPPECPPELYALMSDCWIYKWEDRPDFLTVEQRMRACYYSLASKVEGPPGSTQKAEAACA
# These are yes or no findings as the source states them, for the method shown. Binding seen in cells or lysates may run through a third protein. These calls come from enrichment with a bait or labelling near it, and not all partners need be listed.
# Target: TREM-2 (endogenous, CD4+ T cells and lung tissue) (human (endogenous in CD4+ T cells and lung tissue)) (UniProt Q9NZC2)
# Assay: affinity purification with mass spectrometry
row,binding,Substance
1,binds,"CD3ζ (endogenous, CD4+ T cells and lung tissue) (from UniProt P20963-1 22-164)"
2,binds,"ZAP70 (ζ-chain associated protein of 70 kDa; endogenous, CD4+ T cells and lung tissue) (from UniProt P43403 1-619) (enzyme)"
